Measured values: paper PMC6123808
These are yes or no findings as the source states them, for the method shown. Binding seen in cells or lysates may run through a third protein. Some results given as binding are weak or reduced against the parent protein; the word gives no strength. Blank lines part the entries; values can stand above or below the binder they belong to.

How the values were obtained:
[1] = target: T1, oligodendrocyte-specific protein (OSP/Claudin-11) (mouse (endogenous in brain tissue)) (UniProt Q60771); assay: co-IP; extracts from isolated mouse brain tissue (WT; also contralateral and ipsilateral tissue of tMCAO mice), precleared with Protein G-agarose, 4 ug antibody or control normal IgG with protein G-agarose beads overnight at 4 °C, Pierce Classic IP kit, Western blot; both directions (IP of OSP and IP of Kir4.1)
T1 sequence: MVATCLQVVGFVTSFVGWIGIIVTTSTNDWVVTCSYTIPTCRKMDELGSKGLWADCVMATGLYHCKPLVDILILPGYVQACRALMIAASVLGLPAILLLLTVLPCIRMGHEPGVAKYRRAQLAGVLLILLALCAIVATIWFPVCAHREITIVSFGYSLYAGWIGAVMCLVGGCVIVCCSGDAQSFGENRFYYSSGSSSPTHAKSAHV

[2] = target: T2, inwardly rectifying K+ channel subtype Kir4.1 (mouse (endogenous in brain tissue)) (UniProt Q9JM63); assay: as above
T2 sequence: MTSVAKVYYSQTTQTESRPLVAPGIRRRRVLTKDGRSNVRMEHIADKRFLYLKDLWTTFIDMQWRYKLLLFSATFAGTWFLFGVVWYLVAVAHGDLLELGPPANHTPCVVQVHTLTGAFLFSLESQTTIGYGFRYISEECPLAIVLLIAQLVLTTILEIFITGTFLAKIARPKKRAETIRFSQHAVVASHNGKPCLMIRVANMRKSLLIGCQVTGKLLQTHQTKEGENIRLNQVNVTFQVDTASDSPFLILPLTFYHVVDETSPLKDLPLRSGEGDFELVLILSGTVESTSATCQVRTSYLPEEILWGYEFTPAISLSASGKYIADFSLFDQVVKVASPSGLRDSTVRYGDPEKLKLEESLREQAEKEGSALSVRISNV

binding [1]: binds
B1: inwardly rectifying K+ channel subtype Kir4.1 (protein, UniProt Q9JM63 1-379)
chain: T2 sequence

binding [2]: binds
B2: oligodendrocyte-specific protein (OSP/Claudin-11) (protein, UniProt Q60771 1-207)
chain: T1 sequence
